Reference: publication PMC7239482

T1: GST-SID-3 (C. elegans) (UniProt Q10925)
T1 sequence: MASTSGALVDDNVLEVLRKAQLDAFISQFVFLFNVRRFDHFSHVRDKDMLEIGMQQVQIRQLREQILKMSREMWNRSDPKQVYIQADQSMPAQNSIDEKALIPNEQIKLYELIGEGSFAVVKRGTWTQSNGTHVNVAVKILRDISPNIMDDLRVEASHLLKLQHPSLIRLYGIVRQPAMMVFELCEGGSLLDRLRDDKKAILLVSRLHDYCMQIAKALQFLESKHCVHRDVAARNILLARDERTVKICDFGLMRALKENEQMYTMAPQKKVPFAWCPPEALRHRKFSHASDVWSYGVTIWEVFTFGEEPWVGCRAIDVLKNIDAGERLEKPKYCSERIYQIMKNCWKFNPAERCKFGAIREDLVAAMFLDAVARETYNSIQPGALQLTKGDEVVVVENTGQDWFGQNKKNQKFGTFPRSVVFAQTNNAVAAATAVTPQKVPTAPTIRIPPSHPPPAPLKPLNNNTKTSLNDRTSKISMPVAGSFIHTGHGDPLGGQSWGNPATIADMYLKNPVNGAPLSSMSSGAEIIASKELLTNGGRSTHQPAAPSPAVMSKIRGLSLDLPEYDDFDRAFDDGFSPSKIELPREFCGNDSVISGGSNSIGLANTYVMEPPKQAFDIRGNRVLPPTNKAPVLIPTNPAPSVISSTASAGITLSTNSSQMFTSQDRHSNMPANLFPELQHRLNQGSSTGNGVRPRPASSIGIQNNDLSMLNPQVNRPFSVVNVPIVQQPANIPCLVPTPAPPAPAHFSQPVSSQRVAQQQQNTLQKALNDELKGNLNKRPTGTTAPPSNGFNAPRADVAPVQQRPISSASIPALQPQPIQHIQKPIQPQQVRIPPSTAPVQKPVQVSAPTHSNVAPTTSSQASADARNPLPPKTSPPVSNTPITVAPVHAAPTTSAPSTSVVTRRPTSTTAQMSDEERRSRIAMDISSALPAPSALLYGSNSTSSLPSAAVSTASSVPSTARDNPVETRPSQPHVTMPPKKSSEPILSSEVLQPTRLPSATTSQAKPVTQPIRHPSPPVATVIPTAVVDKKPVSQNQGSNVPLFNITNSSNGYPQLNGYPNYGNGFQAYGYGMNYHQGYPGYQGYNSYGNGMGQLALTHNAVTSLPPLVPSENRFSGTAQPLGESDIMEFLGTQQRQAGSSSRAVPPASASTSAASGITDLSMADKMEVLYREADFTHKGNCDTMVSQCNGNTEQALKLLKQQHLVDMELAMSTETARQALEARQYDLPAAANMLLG

T2: GST-SID-3(369-471aa) (C. elegans) (UniProt Q10925)
T2 sequence: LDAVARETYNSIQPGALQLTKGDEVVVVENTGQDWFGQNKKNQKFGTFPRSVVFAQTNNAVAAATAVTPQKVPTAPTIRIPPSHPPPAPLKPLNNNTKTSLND

T3: GST-SID-3(471-544aa) (C. elegans) (UniProt Q10925)
T3 sequence: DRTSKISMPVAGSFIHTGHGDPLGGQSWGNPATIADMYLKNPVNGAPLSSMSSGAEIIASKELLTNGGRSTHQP

T4: GST-SID-3(aa 1–370 K139A) (C. elegans) (UniProt Q10925)
T4 sequence: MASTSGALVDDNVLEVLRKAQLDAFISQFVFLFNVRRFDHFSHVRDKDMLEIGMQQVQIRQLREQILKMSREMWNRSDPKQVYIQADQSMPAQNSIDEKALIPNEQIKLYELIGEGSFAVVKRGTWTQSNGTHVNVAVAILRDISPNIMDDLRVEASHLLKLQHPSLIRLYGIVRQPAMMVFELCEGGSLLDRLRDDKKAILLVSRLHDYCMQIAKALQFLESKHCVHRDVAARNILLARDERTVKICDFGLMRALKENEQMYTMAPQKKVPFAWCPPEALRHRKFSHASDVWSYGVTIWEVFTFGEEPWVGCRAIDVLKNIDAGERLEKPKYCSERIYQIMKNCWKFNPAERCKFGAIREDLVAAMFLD

T5: GST-SID-3(aa 1–370) (C. elegans) (UniProt Q10925)
T5 sequence: T4 sequence with A139K

T6: GST-SID-3(aa 545–782) (C. elegans) (UniProt Q10925)
T6 sequence: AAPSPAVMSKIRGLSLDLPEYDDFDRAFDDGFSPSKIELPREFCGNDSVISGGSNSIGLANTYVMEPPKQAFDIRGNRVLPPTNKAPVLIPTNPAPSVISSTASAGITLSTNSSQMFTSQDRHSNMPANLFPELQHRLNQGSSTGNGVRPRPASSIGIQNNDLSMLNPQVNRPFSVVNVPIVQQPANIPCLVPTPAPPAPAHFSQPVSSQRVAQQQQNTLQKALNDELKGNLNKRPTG

B1: HA-DYN-1 (protein, UniProt P39055-2 1-838)
chain: MSWQNQGMQALIPVINRVQDAFSQLGTSVSFELPQIAVVGGQSAGKSSVLENFVGKDFLPRGSGIVTRRPLILQLIQDRNEYAEFLHKKGHRFVDFDAVRKEIEDETDRVTGQNKGISPHPINLRVFSPNVLNLTLIDLPGLTKVPVGDQPADIEQQIRDMILTFINRETCLILAVTPANSDLATSDALKLAKEVDPQGLRTIGVLTKLDLMDEGTDAREILENKLFTLRRGYVGVVNRGQKDIVGRKDIRAALDAERKFFISHPSYRHMADRLGTSYLQHTLNQQLTNHIRDTLPTLRDSLQKKMFAMEKDVAEYKNYQPNDPGRKTKALLQMVTQFNADIERSIEGSSAKLVSTNELSGGARINRLFHERFPFEIVKMEIDEKEMRKEIQYAIRNIHGIRVGLFTPDMAFEAIAKKQITRLKEPSLKCVDLVVNELANVIRQCADTMARYPRLRDELERIVVSHMREREQIAKQQIGLIVDYELAYMNTNHEDFIGFSNAEAKASQGQSAKKNLGNQVIRKGWLSLSNVSFVRGSKDNWFVLMSDSLSWYKDDEEKEKKYMLPLDGVKLKDIEGGFMSRNHKFALFYPDGKNIYKDYKQLELGCTNLDEIDAWKASFLRAGVYPEKQKAQEDESQQEMEDTSIDPQLERQVETIRNLVDSYMRIITKTIKDLVPKAVMHLIVNQTGEFMKDELLAHLYQCGDTDALMEESQIEAQKREEMLRMYHACKEALRIISEVNMSTLGDQPPPLPMSDYRPHPSGPSPVPRPAPAPPGGRQAPMPPRGGPGAPPPPGMRPPPGAPGGGGGMYPPLIPTRVPTPSNGAPEIPARPQVPKRPF

Experiments:
Test in all cases: pull-down; GST fusion on glutathione sepharose 4B beads; in vitro translated HA-tagged protein (15 μL TNT mix in 700 μL binding buffer) bound at 4°C overnight; washes in 50 mM Tris pH 8.0, 300 mM NaCl, 0.2% NP-40, 1 mM DTT; anti-HA blot; only the target purified
GST-SID-3 (C. elegans) = target: T1, GST-SID-3 (C. elegans)
[1] = target: T2, GST-SID-3(369-471aa) (C. elegans)
[2] = target: T3, GST-SID-3(471-544aa) (C. elegans)
[3] = target: T4, GST-SID-3(aa 1–370 K139A) (C. elegans)
[4] = target: T5, GST-SID-3(aa 1–370) (C. elegans)
[5] = target: T6, GST-SID-3(aa 545–782) (C. elegans)
GST-EHBP-1 (C. elegans) = target: GST-EHBP-1 (C. elegans)
GST-NCK-1 (C. elegans) = target: GST-NCK-1 (C. elegans)

Row | Molecule | binding (GST-SID-3 (C. elegans)) | binding [1] | binding [2] | binding [3] | binding [4] | binding [5] | binding (GST-EHBP-1 (C. elegans)) | binding (GST-NCK-1 (C. elegans))
1 | HA-EHBP-1(aa 1–223) (C. elegans) (domain or fragment) | binds | no binding | no binding | binds | binds | binds | – | –
2 | B1 | – | – | – | – | – | – | no binding | binds

Where a chain is given by its changes, count along the chain named. No constants are given. Whether binding was seen depends on the method and setting. Binding seen in cells or lysates may run through a third protein. For some assays here: Binding calls can cover weak binding; strength is not graded here. Tags and fused reporters may be left off the sequences shown.
